Some of the results follow. Further columns of the screen follow, without active or inactive calls. Compounds called inactive in the main read-out are mostly missing here. Potencies come from curve fits of mixed quality, noted in brackets.
Experiment: IkB Signaling
Details: ABC-DLBCL IkBa-CBG/CBR dual luciferase ratio (green luciferase fused to IkBa over red control in OCI-Ly3 lymphoma cells), 4 h; measured here: control luc red channel unless noted
Outline: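 In this assay, an IκBα–CBG68 fusion accumulates when IKK-driven degradation is blocked; native CBR normalizes for cell number. OCI-Ly3 cells were treated 4 h with compound and doxycycline, then green and red light read after Chroma-Glo addition.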
In the case of `CCOC(=O)c1c(NC(=O)c2cc(-c3ccc(Cl)cc3)on2)sc2c1CCCC2`, the AC50 is reported as 10 µM [falling, partial curve].
For `CCOc1ccc(-c2cc3nc(C4CCN(C(=O)OC(C)(C)C)CC4)c(C(=O)Nc4ccc(C)c(F)c4)cn3n2)cc1`, the AC50 was 31.6 µM [falling, single point].
In the case of `Cc1ccc(C)n1-n1cnc2sc(-c3ccccc3)cc2c1=O`, the AC50 is reported as 25.1 µM [falling, partial curve].
In the case of `CCn1cc(C(=O)N2CCN(c3cc(Cl)ccc3C)CC2)c(=O)c2cc(S(=O)(=O)N3CCOCC3)ccc21`, the AC50 is reported as 20 µM [falling, single point].
With `CC(=O)c1ccc(NS(=O)(=O)c2cnc(N)nc2)cc1` the AC50 was 25.1 µM [rising, single point].
With `Cc1cccc(NC(=O)CSC2=Nc3ccccc3C3=NC(CCC(=O)NCc4ccc(F)cc4)C(=O)N23)c1` (centres undefined) the AC50 was 20 µM [falling, single point].
In the case of `CCOc1ccc(CN2C(=O)c3ccccc3Sc3ccc(C(=O)NCCc4ccccc4)cc32)cc1`, the AC50 is reported as 10 µM [rising, partial curve].
For `CC1CCN(S(=O)(=O)c2ccc(C(=O)Nc3nc4ccc(F)cc4s3)cc2)CC1`, the AC50 was 0.631 µM [falling, full curve].
In the case of `O=C(CCSc1nc(-c2ccco2)cc(C(F)(F)F)n1)N1CCCc2ccccc21`, the AC50 is reported as 12.6 µM [falling, partial curve].
For `CC(C(=O)Nc1ccccc1C(F)(F)F)n1nnc2sc3c(c2c1=O)CCCC3` (centres undefined), the AC50 was 25.1 µM [falling, partial curve, poor fit].
With `O=C1CCCC2=C1C1(O)C(=O)c3ccccc3C1(O)O2` (centres undefined) the AC50 was 12.6 µM [falling, partial curve].
With `CCc1ccc(CNC(=O)CSc2c3c(nc4ccc(Cl)cc24)CCCC3)cc1` the AC50 was 2.51 µM [falling, full curve, poor fit].
With `Cc1ccc2c(c1)C(c1ccccc1)N(C(=O)c1ccc(S(=O)(=O)N3CCCCC3)cc1)CC(=O)N2` (centres undefined) the AC50 was 39.8 µM [falling, single point].
In the case of `Cc1ccccc1NC(=O)C(=O)NCC1(c2ccccc2)CCCC1`, the AC50 is reported as 15.8 µM [falling, single point].
In the case of `O=C(Nc1nc(-c2ccc3c(c2)OCO3)cs1)C1COc2ccccc2O1` (centres undefined), the AC50 is reported as 10 µM [falling, partial curve].
For `CCOc1ccc(Nc2nc(C)c(NC(=O)c3ccc(C)cc3)c(Nc3ccc(OCC)cc3)n2)cc1`, the AC50 was 6.31 µM [falling, partial curve].
With `O=C(CSc1nnc2scc(-c3ccc(Cl)cc3)n12)Nc1cccc(C(F)(F)F)c1` the AC50 was 20 µM [falling, partial curve].
With `CCOc1ccc(N2CCCn3c2nc2c3c(=O)n(CCc3ccccc3)c(=O)n2C)cc1` the AC50 was 12.6 µM [falling, partial curve].
With `CCn1c(=O)c2cc(C(=O)N3CCN(c4cccc(OC)c4)CC3)sc2c2ccccc21` the AC50 was 7.94 µM [falling, full curve].
For `COc1ccc(Cl)cc1Nc1nc2ccc(C(=O)c3ccccc3)cc2n2cnnc12`, the AC50 was 0.0794 µM [falling, full curve, poor fit].
For `CCc1ccc(C(c2ccccc2)c2c[nH]c3ccc(C)cc23)s1` (centres undefined), the AC50 was 39.8 µM [falling, partial curve].
With `O=C(Nc1ccc(Br)cc1)C1CCCN1S(=O)(=O)c1cccs1` (centres undefined) the AC50 was 6.31 µM [falling, partial curve].
In the case of `CC(CCc1ccccc1)NC(=O)Cn1c(=O)nc(-c2ccccc2F)c2cc(Cl)ccc21` (centres undefined), the AC50 is reported as 25.1 µM [falling, partial curve].
With `CCOC(=O)Cn1nnnc1C(CC)N(Cc1cccs1)Cc1cc2cc(C)ccc2[nH]c1=O` (centres undefined) the AC50 was 12.6 µM [falling, partial curve].
In the case of `CC(C(=O)N(C1CC1)C1(C(=O)Nc2ccccc2)CCCC1)N1C(=O)c2ccccc2C1=O` (centres undefined), the AC50 is reported as 12.6 µM [falling, partial curve].
In the case of `COc1cccc(-n2ccnc2SCC(=O)Nc2ccc(Cl)c(Cl)c2)c1`, the AC50 is reported as 12.6 µM [rising, partial curve, poor fit].
For `CSc1ccc(CCNC(=O)c2ccc3c(c2)nc2n3CCCCC2)cc1`, the AC50 was 20 µM [falling, partial curve].
For `O=C(CSc1nccn1-c1ccc(Cl)cc1)Nc1cccc2ccccc12`, the AC50 was 15.8 µM [falling, partial curve].
In the case of `Cc1ccc(CSc2ncc(Cl)c(C(=O)Nc3nc4ccc(C)cc4s3)n2)cc1`, the AC50 is reported as 1.58 µM [falling, full curve].
In the case of `Oc1c(C(c2ccccc2)N2CCN(c3cccc(Cl)c3)CC2)sc2nc(-c3ccco3)nn12` (centres undefined), the AC50 is reported as 3.98 µM [rising, partial curve, poor fit].
In the case of `O=c1c(=O)n(-c2ccccc2)ccn1Cc1cccc(C(F)(F)F)c1`, the AC50 is reported as 1 µM [rising, full curve, poor fit].
With `COc1ccccc1N1CCN(C(=O)CCc2ccc(S(=O)(=O)NCC(C)C)cc2)CC1` the AC50 was 12.6 µM [falling, partial curve].
In the case of `O=C(NCc1ccc(F)cc1)c1ccc(CS(=O)Cc2ccc(Cl)cc2)o1` (centres undefined), the AC50 is reported as 15.8 µM [falling, single point].
In the case of `COc1ccccc1CNS(=O)(=O)c1cc(Br)cc2c1N(C(C)=O)C(C)C2` (centres undefined), the AC50 is reported as 25.1 µM [falling, partial curve].
For `COc1cc(Cl)c(NC(=O)c2cc(CN3CCCC3)on2)c(OC)c1`, the AC50 was 3.16 µM [rising, single point].
For `CC(=O)N1CCc2c(sc(NC(=O)CSc3ccc(F)cc3)c2-c2nc3ccccc3s2)C1`, the AC50 was 12.6 µM [falling, single point].
With `Cc1ccc(Cn2c(CO)cnc2SCC(=O)Nc2cccc(F)c2)cc1` the AC50 was 1 µM [falling, full curve, poor fit].
For `Cc1cc(C)cc(CC2CC(=O)N(c3ccc4c(c3)OCCO4)C2=O)c1` (centres undefined), the AC50 was 25.1 µM [falling, partial curve].
For `CCn1c(C)c(C)c2cc(C(=O)NCCc3cc(OC)ccc3OC)ccc21`, the AC50 was 39.8 µM [falling, single point].

From PubChem BioAssay AID445 (National Center for Advancing Translational Sciences (NCATS), 2006)
